Measured values taken from publication PMC10761714.
These are yes or no findings as the source states them, for the method shown. Binding can be weak; no strength is given. For some assays here: Binding seen in cells or lysates may run through a third protein.

Tests used:
[1] = target: Mouse STYXL1 in pGBKT7 (yeast two-hybrid bait) (mouse); experiment: two-hybrid; STYXL1 in pGBKT7 as bait, CCT1-CCT8 in pGADT7 as prey; yeast AH109, 30 °C 2-3 days, SD-Leu-Trp-His plates
[2] = target: N-terminal region of STYXL1 (N, 1-167 aa) (mouse); experiment: co-IP; co-transfected HEK293T cells, 48 h; IP lysis buffer; anti-DYKDDDDK resin at 4 °C overnight; washed with 20 mM Tris pH 7.4, 150 mM NaCl, 0.5% Triton X-100, 1 mM EDTA; immunoblot

Row | binding [1] | binding [2] | Binder
1 | binds |  | Mouse CCT7 in pGADT7 (yeast two-hybrid prey) (protein, UniProt P80313 1-544) MMPTPVILLKEGTDSSQGIPQLVSNISACQVIAEAVRTTLGPRGMDKLIVDGRGKATISNDGATILKLLDVVHPAAKTLVDIAKSQDAEVGDGTTSVTLLAAEFLKQVKPYVEEGLHPQIIIRAFRTATQLAVNKIKEIAVTVKKQDKVEQRKMLEKCAMTALSSKLISQQKVFFAKMVVDAVMMLDELLQLKMIGIKKVQGGALEESQLVAGVAFKKTFSYAGFEMQPKKYKNPKIALLNVELELKAEKDNAEIRVHTVEDYQAIVDAEWNILYDKLEKIHQSGAKVILSKLPIGDVATQYFADRDMFCAGRVPEEDLKRTMMACGGSIQTSVNALVPDVLGHCQVFEETQIGGERYNFFTGCPKAKTCTIILRGGAEQFMEETERSLHDAIMIVRRAIKNDSVVAGGGAIEMELSKYLRDYSRTIPGKQQLLIGAYAKALEIIPRQLCDNAGFDATNILNKLRARHAQGGMWYGVDINNENIADNFQAFVWEPAMVRINALTAASEAACLIVSVDETIKNPRSTVDPPAPSAGRGRGQARFH
2 |  | binds | CCT7 (co-IP construct) (protein, UniProt P80313 1-544) MMPTPVILLKEGTDSSQGIPQLVSNISACQVIAEAVRTTLGPRGMDKLIVDGRGKATISNDGATILKLLDVVHPAAKTLVDIAKSQDAEVGDGTTSVTLLAAEFLKQVKPYVEEGLHPQIIIRAFRTATQLAVNKIKEIAVTVKKQDKVEQRKMLEKCAMTALSSKLISQQKVFFAKMVVDAVMMLDELLQLKMIGIKKVQGGALEESQLVAGVAFKKTFSYAGFEMQPKKYKNPKIALLNVELELKAEKDNAEIRVHTVEDYQAIVDAEWNILYDKLEKIHQSGAKVILSKLPIGDVATQYFADRDMFCAGRVPEEDLKRTMMACGGSIQTSVNALVPDVLGHCQVFEETQIGGERYNFFTGCPKAKTCTIILRGGAEQFMEETERSLHDAIMIVRRAIKNDSVVAGGGAIEMELSKYLRDYSRTIPGKQQLLIGAYAKALEIIPRQLCDNAGFDATNILNKLRARHAQGGMWYGVDINNENIADNFQAFVWEPAMVRINALTAASEAACLIVSVDETIKNPRSTVDPPAPSAGRGRGQARFH
